Library screening results

The values are deposited in ChEMBL (CHEMBL3988442, “University of Dundee, Small-Polar-MMV Screening Library” (2021)).

Each number is a percent effect as filed. The record does not define 0% and 100%; most values in the screen are far below 50% and negative numbers occur (in some assays of this library far below -100). This is an unselected part of the compounds tested. A dash means the value is not listed here; it may have been measured.

Mtb growth Cornell: 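Whole-cell assay for inhibitors of Mycobacterium tuberculosis growth, labelled Cornell in the record; the read-out is not stated. The concentration is filed as 10 mM, unlikely as a test dose, so the dose is not known. The record gives no direction; compounds strong in two other growth screens of this library score well above the rest, so higher reads as stronger inhibition. About 53,000 compounds were tested under these conditions; 1.7% (about 900) showed 50% or more at least once.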
Mtb heat-shock: 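Assay on Mycobacterium tuberculosis, filed only as a heat shock assay from Cornell; the read-out is not stated. The concentration is filed as 10 mM, unlikely as a test dose, so the dose is not known. Higher reads as stronger inhibition (inferred: compounds with an IC50 in retests scored well above the rest). Of about 69,000 compounds tested this way, about 930 (1.4%) reached 50% or more in at least one test.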

compound | Mtb growth Cornell | Mtb heat-shock
COc1cc(CN2CCN(c3cccc(OC)c3)C(=O)C2)cc(OC)c1 | 8.627% | 25.89%
COc1ccc(NC(=O)N2CCC(CSC)C2)cc1C (configuration not stated) | - | -110.4%
Cc1noc(C)c1CN1CCCC2(CCN(C(=O)NC3CC3)C2)C1.O=C(O)C(F)(F)F (configuration not stated) | 22.93% | -20.33%
CC(C)NC(=O)C(C)NC(=O)N1CCN(c2ccc(Cl)cc2)CC1 (configuration not stated) | -27.07% | -16.34%
O=C(Cc1cccnc1)N1CCC2(CC1)CCN(C1CCOCC1)CC2.O=C(O)C(F)(F)F.O=C(O)C(F)(F)F | 6.956% | -4.103%
Cc1cnc(N2CCc3cc(C(=O)O)c(N(C)C)nc3CC2)nc1.O=C(O)C(F)(F)F | -4.334% | 36.41%
O=C(O)C(F)(F)F.[H][C@@]12CCN(Cc3cc(C)on3)C[C@]1(C(=O)NCCOC)CCO2 | 15.31% | -5.953%
CCOc1ccc(Cl)cc1NC(=O)N1CCC(n2cncn2)CC1 | 15.48% | 16.26%
CC(CC(=O)NS(=O)(=O)c1ccc2c(c1)OCCO2)c1ccc(F)cc1 (configuration not stated) | 33.62% | 8.261%
Cc1cc(C)n(CCCN(C)C(=O)C2COc3ccccc3C2)n1 (configuration not stated) | -13.83% | -9.39%
Cn1ncc2c1NC(=O)CC2c1cccs1 (configuration not stated) | 34.54% | 15.23%
O=c1[nH]c2ccccc2cc1CNCCCN1CCOCC1 | 3.527% | -11.82%
COc1cc(CN2CCCC(Nc3cccc(F)c3)C2)cc(OC)c1O (configuration not stated) | - | 6.089%
CC(C)N(C)S(=O)(=O)N(C)Cc1ccc2c(c1)OCCO2 | - | -4.913%
CCCc1nc(CN2CCN(C(C)c3nc(C4CC4)no3)CC2)no1 (configuration not stated) | - | -15.16%
CCn1c(C2CCN(C(=O)c3cc(CC(C)C)no3)CC2)nn(C)c1=O | 8.863% | 21.18%
CC(C)(O)c1cn(C2CCN(c3ncccc3Cl)CC2)nn1 | 4.366% | 0.525%
Cl.c1cc(CNCc2ccc(Cn3cncn3)cc2)c2c(c1)OCCO2 | 6.441% | -1.246%
O=C(NCCOc1ncc(Cl)cc1Cl)c1ccncc1F | 33.97% | 12.09%
CNC(=O)CSC(C)c1ccc(Br)cc1 (configuration not stated) | -14.93% | -11.35%
Cn1cc(CCCN2CCN(C(=O)c3cccc(O)c3)CC2)cn1 | -28.22% | -19.42%
CN(C)C(C(=O)NCC1(C)COC1)c1cccc(F)c1 (configuration not stated) | 29.99% | 6.762%
CCCOc1ccccc1NCC(=O)Nc1ccc(CC)cc1 | -5.098% | 0.2243%
CCOc1cc2c(cc1CN1CCC3(CC1)CNC(=O)C3)CCC2 | - | -32.62%
O=C(NC1CC1)NC(c1ccc(F)cc1)C1CC1 (configuration not stated) | 20.83% | 8.887%
Cc1ccc(NC(=O)N2CCCN(C(N)=O)CC2)s1 | - | -19.96%
CN(C)C(=O)CN1CCC2(COCc3cnc(N4CCOCC4)nc32)C1.O=C(O)C(F)(F)F (configuration not stated) | -2.126% | -12.36%
CSc1ccc(C(C(=O)O)N2CCOCC2)cc1 (configuration not stated) | -15.29% | 10.01%
CSCC[C@H](NC(=O)CCn1ccc2c(Br)cccc21)C(=O)O | -18.36% | 19.54%
CCC(=O)NC(C)c1ccccc1C (configuration not stated) | 12.11% | 11.69%
Cc1cc(C)n(CC2CN(c3nnc(C)c(C)c3C#N)CCO2)n1 (configuration not stated) | - | -36.93%
COc1ccc(-c2noc(C3CC(C(C)C)=NO3)n2)cc1 (configuration not stated) | 32.84% | 18.05%
Cn1cnnc1C1CCN(C(=O)COCc2ccccc2Cl)CC1 | 28.38% | 6.39%
Cc1cc(N2CCCN(CCc3ccccc3)CC2)ccn1 | -1.028% | -5.535%
CCn1cc(CN2CCCN(C(=O)c3ccccc3C)CC2)cn1 | - | -3.035%
CC(C)Oc1ncccc1CNC(=O)c1cnccn1 | - | -8.346%
O=C(c1ccc2nccn2c1)N1CCC(CCn2cccn2)CC1 | 6.404% | -33.46%
CCC1CN(C(=O)c2ccccc2N2CCCC2)CCN1C(C)C (configuration not stated) | 19.77% | -8.243%
Cc1noc(C)c1-c1cncc(CC2CCN(C(=O)c3cc[nH]n3)C2)n1 (configuration not stated) | 1.083% | -4.748%
Cc1ccsc1CN1CCCC(CNC(=O)c2ccc(N)nc2)C1 (configuration not stated) | 12.28% | -7.762%
O=C(Cn1cc(Cl)cn1)Nc1ccc2c(c1)OCO2 | 14.17% | 23.99%
CCCC(=O)Nc1ccc2c(c1)C1(CCOCC1)CN2CCOC.O=C(O)C(F)(F)F | 8.863% | 15.62%
COc1ccc2c(c1)OCC(CNC(=O)c1ccc(=O)n(C)c1)C2 (configuration not stated) | 33.45% | 11.17%
CCOc1ccccc1-c1noc(CN(C)Cc2cnn(C)c2)n1 | - | -10.32%
Cc1ccc(CNC(=O)N(Cc2ccccc2F)C2CC2)cn1 | -6.687% | 2.037%
O=C1CC(N(C(=O)c2ccc(F)c(C(F)(F)F)c2)C2CC2)C(=O)N1 (configuration not stated) | - | -6.574%
CCOCCC1(CNC(=O)c2ccc(C)nc2)CCCC1 | 15.63% | 4.714%
O=C(CCn1cnc2ccccc21)N1CCN2CCCCC2C1 (configuration not stated) | - | -19.49%
Oc1ccc(Cl)cc1CNCc1ccccc1C(F)(F)F | 6.779% | 21.91%

The first 6 entries again:

| compound | Mtb growth Cornell | Mtb heat-shock |
|---|---|---|
| `COc1cc(CN2CCN(c3cccc(OC)c3)C(=O)C2)cc(OC)c1` | 8.627% | 25.89% |
| `COc1ccc(NC(=O)N2CCC(CSC)C2)cc1C` (configuration not stated) | - | -110.4% |
| `Cc1noc(C)c1CN1CCCC2(CCN(C(=O)NC3CC3)C2)C1.O=C(O)C(F)(F)F` (configuration not stated) | 22.93% | -20.33% |
| `CC(C)NC(=O)C(C)NC(=O)N1CCN(c2ccc(Cl)cc2)CC1` (configuration not stated) | -27.07% | -16.34% |
| `O=C(Cc1cccnc1)N1CCC2(CC1)CCN(C1CCOCC1)CC2.O=C(O)C(F)(F)F.O=C(O)C(F)(F)F` | 6.956% | -4.103% |
| `Cc1cnc(N2CCc3cc(C(=O)O)c(N(C)C)nc3CC2)nc1.O=C(O)C(F)(F)F` | -4.334% | 36.41% |